Reference: patent publication US20070203188
The exact form of at least one protein or probe is not confirmed.

Amino acid sequences for entries named in this document (tags omitted).
UniProt P61244, whole entry: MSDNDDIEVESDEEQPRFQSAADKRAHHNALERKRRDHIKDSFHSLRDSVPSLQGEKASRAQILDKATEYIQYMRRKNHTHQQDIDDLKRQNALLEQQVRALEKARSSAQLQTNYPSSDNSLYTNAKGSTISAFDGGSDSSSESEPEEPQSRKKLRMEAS

Biological target: Max(L) (Homo sapiens) (UniProt P61244)
Test: EMSA
Details: homodimer DNA binding unaffected by compounds; data not shown, same oligo presumed; purified recombinant protein; protein details: His6 (pQE-10); label: 5'-HEX on one strand

Sequence: CACCCGGTCACGTGGCCTACAC (double strand) [E-box 22-mer duplex]
- binding result: binds
